Results taken from PubChem BioAssay AID248 (DTP/NCI, 2004).
The list shows only some results of the screen, not a fair sample: it gathers tests that were run many times, whatever their T/C, doses with no T/C, and many T/C values between a quarter and a half above the control. Further doses and runs are listed elsewhere. T/C: endpoint of the treated group in % of that of the vehicle group. Some doses have a count of surviving animals in place of a T/C: the source files T/C as zero there, which appears to mark a toxic dose or a test without result, not a measured value. Some doses without a T/C left all or most animals alive at the check, yet need not have been tolerated: survival well below the control is almost never listed, so the zero probably covers shortened survival too. Counts of survivors are from the toxicity check (mostly the fifth day) where no day follows; animals may have died later. Schedules are NCI's codes, read here as Q, the interval in days (D) or hours (H), X, the number of doses. Some doses were run more than once; the results are listed from low to high. Some schedules carry Z or #; the key to these is not given. Where survival is the endpoint, the PubChem record calls one and a half times the control and up active, and a quarter to a half above the control has no call in these data; cut-offs in other NCI protocols can differ. Some T/C values carry the count of animals alive at the toxicity check (mostly the fifth day); where none is given, no animal had died by that day.

Tested on: L1210 leukemia ip in BDF1 mice, survival T/C
Test: NCI In Vivo Anticancer Drug Screen. Data for tumor model L1210 Leukemia (intraperitoneal) in B6D2F1 (BDF1) mice
Details: higher T/C = longer survival
[1] = T/C endpoint: mean survival time, dose: 400.0 mg/kg/injection, schedule: Q01DX001 (ip), vehicle: carboxymethylcellulose (CMC)
[2] = T/C endpoint: mean survival time, dose: 300.0 mg/kg/injection, schedule: Q01DX001 (ip), vehicle: saline
[3] = T/C endpoint: mean survival time, dose: 200.0 mg/kg/injection, schedule: Q01DX009 (ip), vehicle: Klucel (hydroxypropylcellulose) (HPC)
[4] = T/C endpoint: mean survival time, dose: 400.0 mg/kg/injection, schedule: Q01DX009 (ip), vehicle: Klucel (hydroxypropylcellulose) (HPC)
[5] = T/C endpoint: mean survival time, dose: 100.0 mg/kg/injection, schedule: Q04DX002 (ip), vehicle: saline with Tween-80
[6] = T/C endpoint: mean survival time, dose: 100.0 mg/kg/injection, schedule: Q04DX003 (ip), vehicle: saline with Tween-80
[7] = T/C endpoint: mean survival time, dose: 200.0 mg/kg/injection, schedule: Q04DX003 (ip), vehicle: saline with Tween-80
[8] = T/C endpoint: mean survival time, dose: 400.0 mg/kg/injection, schedule: Q04DX003 (ip), vehicle: saline with Tween-80
[9] = T/C endpoint: mean survival time, dose: 225.0 mg/kg/injection, schedule: Q01DX Z (ip), vehicle: methylcellulose (MC)
[10] = T/C endpoint: mean survival time, dose: 337.5 mg/kg/injection, schedule: Q01DX Z (ip), vehicle: methylcellulose (MC)
[11] = T/C endpoint: mean survival time, dose: 8.0 mg/kg/injection, schedule: Q01DX001 (ip), vehicle: carboxymethylcellulose (CMC)

Q: C=Nc1ccc(Cl)cc1 was tested. Which survivor count [1] did it give?
A: 1 of 4

Q: With c1cc2ccc3ccc[n+]4c3c2[n+](c1)CC4 as the compound, how does the survivor count (T/C endpoint: mean survival time, dose: 150.0 mg/kg/injection, schedule: Q01DX001 (ip), vehicle: saline) read?
A: 2 of 6

Q: And the survivor count [2]?
A: 0 of 6

Q: For Cc1ccc(C(C)C)cc1NC(=O)c1c(Cl)c(Cl)c(Cl)c(Cl)c1C(=O)O, which survivor count [3] is on record?
A: 0 of 6

Q: And the survivor count [4]?
A: 0 of 6

Q: With O=C(O)c1c(-c2ccccc2)[nH]c2cc(Cl)ccc2c1=O as the compound, how does the survivor count [1] read?
A: 1 of 4

Q: And the survivor count [4]?
A: 2 of 6

Q: For ClCC1CC2C=CC1C2 (centres undefined), which survivor count (T/C endpoint: mean survival time, dose: 100.0 mg/kg/injection, schedule: Q01DX009 (ip), vehicle: Klucel (hydroxypropylcellulose) (HPC)) is on record?
A: 1 of 6

Q: What about the survivor count [5] of the same compound?
A: 0 of 3 and 1 of 4

Q: And the survivor count [3]?
A: 0 of 6

Q: What about the survivor count (T/C endpoint: mean survival time, dose: 200.0 mg/kg/injection, schedule: Q04DX002 (ip), vehicle: saline with Tween-80) of the same compound?
A: 0 of 3

Q: What about the survivor count (T/C endpoint: mean survival time, dose: 400.0 mg/kg/injection, schedule: Q04DX002 (ip), vehicle: saline with Tween-80) of the same compound?
A: 0 of 3

Q: Which survivor count (T/C endpoint: mean survival time, dose: 400.0 mg/kg/injection, schedule: Q01DX009 (ip), vehicle: acetone) does the source give for Cc1cc(P(=O)(O)O)ccc1Cl here?
A: 2 of 6

Q: How did the survivor count (T/C endpoint: mean survival time, dose: 50.0 mg/kg/injection, schedule: Q01DX001 (ip), vehicle: other) turn out when CCOC(=O)C(c1ccccc1)N(c1ccccc1)S(=O)(=O)c1ccc(C)cc1 (centres undefined) was run?
A: 0 of 4

Q: How did the survivor count (T/C endpoint: mean survival time, dose: 100.0 mg/kg/injection, schedule: Q04DX002 (ip), vehicle: DMSO) turn out when Brc1ccc2c(c1)/C(=C/c1ccccc1)c1ccccc1-2 was run?
A: 3 of 3

Q: For NCC(=O)c1ccc(-c2ccccc2)cc1, which survivor count (T/C endpoint: mean survival time, dose: 400.0 mg/kg/injection, schedule: Q04DX003 (ip), vehicle: saline) is on record?
A: 2 of 6

Q: How did the survivor count [6] turn out when O=C(O)CC(Br)C(=O)c1ccccc1 (centres undefined) was run?
A: 6 of 6

Q: And the survivor count [7]?
A: 5 of 6

Q: What about the survivor count [8] of the same compound?
A: 1 of 6

Q: CCCCNC(=O)c1cc(NC(=O)c2ccc(C(=O)Nc3cc(C(=O)NCCCC)cc(C4N=CCN4)c3)cc2)cc(C2=NCCN2)c1 (centres undefined) was tested. Which survivor count (T/C endpoint: mean survival time, dose: 10.0 mg/kg/injection, schedule: Q01DX015 (ip), vehicle: methylcellulose (MC)) did it give?
A: 6 of 6

Q: What about the survivor count (T/C endpoint: mean survival time, dose: 125.0 mg/kg/injection, schedule: Q01DX015 (ip), vehicle: methylcellulose (MC)) of the same compound?
A: 4 of 6

Q: And the survivor count (T/C endpoint: mean survival time, dose: 250.0 mg/kg/injection, schedule: Q01DX015 (ip), vehicle: methylcellulose (MC))?
A: 0 of 6

Q: What about the survivor count (T/C endpoint: mean survival time, dose: 500.0 mg/kg/injection, schedule: Q01DX015 (ip), vehicle: methylcellulose (MC)) of the same compound?
A: 0 of 6

Q: For O=C(O)CC1C=CCC1 (centres undefined), which survivor count (T/C endpoint: mean survival time, dose: 50.0 mg/kg/injection, schedule: Q04DX003 (ip), vehicle: saline) is on record?
A: 0 of 3

Q: What about the survivor count (T/C endpoint: mean survival time, dose: 100.0 mg/kg/injection, schedule: Q04DX003 (ip), vehicle: saline) of the same compound?
A: 0 of 3

Q: Which results are given for N=C(N)c1ccccc1?
A: survivor count (T/C endpoint: mean survival time, dose: 100.0 mg/kg/injection, schedule: Q01DX Z (ip), vehicle: methylcellulose (MC)): 6 of 6; T/C [9]: 90 [5 of 6 alive], 102, 108 % of control [5 of 6 alive]; survivor count [9]: 3 of 6; T/C [10]: 97 and 121 % of control [5 of 7 alive]; survivor count [10]: 0 of 6 and 2 of 6; survivor count (T/C endpoint: mean survival time, dose: 506.0 mg/kg/injection, schedule: Q01DX Z (ip), vehicle: methylcellulose (MC)): 0 of 6 and 0 of 7; survivor count (T/C endpoint: mean survival time, dose: 759.0 mg/kg/injection, schedule: Q01DX Z (ip), vehicle: methylcellulose (MC)): 0 of 6 and 0 of 7

Q: For CCCCn1cnc2c(=O)[nH]cnc21, which survivor count (T/C endpoint: mean survival time, dose: 529.0 mg/kg/injection, schedule: Q01DX Z (ip), vehicle: carboxymethylcellulose (CMC)) is on record?
A: 0 of 6

Q: What about the survivor count (T/C endpoint: mean survival time, dose: 1058.0 mg/kg/injection, schedule: Q01DX Z (oral), vehicle: carboxymethylcellulose (CMC)) of the same compound?
A: 0 of 6

Q: Which survivor count (T/C endpoint: mean survival time, dose: 200.0 mg/kg/injection, schedule: Q01DX001 (ip), vehicle: carboxymethylcellulose (CMC)) does the source give for CC[CH2][Sn]([CH2]CC)([CH2]CC)[CH2]CC here?
A: 3 of 4

Q: What about the survivor count [1] of the same compound?
A: 0 of 4

Q: Cc1cc2c(cc1C)N(C(=O)CCl)CCN2C(=O)CCl was tested. Which survivor count (T/C endpoint: mean survival time, dose: 40.0 mg/kg/injection, schedule: Q01DX Z (ip), vehicle: carboxymethylcellulose (CMC)) did it give?
A: 2 of 6

Q: With COc1cc([C@@H]2c3cc4c(c(O)c3C[C@H]3COC(=O)[C@@H]32)OCO4)cc(OC)c1O as the compound, how does the survivor count (T/C endpoint: mean survival time, dose: 1.0 mg/kg/injection, schedule: Q01DX Z (ip), vehicle: saline) read?
A: 4 of 7

Q: What about the survivor count (T/C endpoint: mean survival time, dose: 3.6 mg/kg/injection, schedule: Q01DX001 (ip), vehicle: carboxymethylcellulose (CMC)) of the same compound?
A: 0 of 4

Q: And the survivor count (T/C endpoint: mean survival time, dose: 5.3 mg/kg/injection, schedule: Q01DX001 (ip), vehicle: carboxymethylcellulose (CMC))?
A: 1 of 4

Q: And the T/C [11]?
A: 136 % of control [3 of 4 alive]

Q: What about the survivor count [11] of the same compound?
A: 0 of 4

Q: What about the survivor count (T/C endpoint: mean survival time, dose: 12.0 mg/kg/injection, schedule: Q01DX001 (ip), vehicle: carboxymethylcellulose (CMC)) of the same compound?
A: 1 of 4 and 4 of 4

Q: What about the survivor count (T/C endpoint: median survival time, dose: 1.0 mg/kg/injection, schedule: Q01DX009 (ip), vehicle: Klucel (hydroxypropylcellulose) (HPC)) of the same compound?
A: 4 of 8

Q: How did the survivor count (T/C endpoint: mean survival time, dose: 150.0 mg/kg/injection, schedule: Q04DX003 (ip), vehicle: saline) turn out when CC1(C)C(=O)Nc2ccccc2N1C(=O)CN1CCCC1 was run?
A: 1 of 6

Q: And the survivor count [2]?
A: 0 of 6

Q: Which results are given for C=C(C(=O)c1ccccc1)C(NC(C)(C)C)c1ccccc1 (centres undefined)?
A: survivor count (T/C endpoint: mean survival time, dose: 40.0 mg/kg/injection, schedule: Q01DX001 (ip), vehicle: saline): 1 of 4; survivor count (T/C endpoint: mean survival time, dose: 80.0 mg/kg/injection, schedule: Q01DX001 (ip), vehicle: saline): 0 of 4; survivor count (T/C endpoint: mean survival time, dose: 100.0 mg/kg/injection, schedule: Q01DX001 (ip), vehicle: saline): 0 of 4; survivor count (T/C endpoint: mean survival time, dose: 200.0 mg/kg/injection, schedule: Q01DX001 (ip), vehicle: saline): 1 of 4; survivor count (T/C endpoint: mean survival time, dose: 400.0 mg/kg/injection, schedule: Q01DX001 (ip), vehicle: saline): 2 of 4

Q: What does the source list for CCCN(CCC)CCSC(=S)NCCOC?
A: survivor count (T/C endpoint: mean survival time, dose: 200.0 mg/kg/injection, schedule: Q01DX009 (ip), vehicle: acetone): 3 of 6; survivor count (T/C endpoint: mean survival time, dose: 400.0 mg/kg/injection, schedule: Q01DX001 (ip), vehicle: acetone): 0 of 6

Q: COc1ccccc1N1CCN(CC(O)COc2ccccc2C(C)=O)CC1 (centres undefined) was tested. Which survivor count [7] did it give?
A: 3 of 6

Q: And the survivor count [8]?
A: 1 of 6

Q: How did the survivor count [5] turn out when Nc1nc(NCCCc2ccccc2)c(N=Nc2ccccc2)c(=O)[nH]1 was run?
A: 3 of 3

Q: And the survivor count [6]?
A: 6 of 6

Q: And the survivor count (T/C endpoint: mean survival time, dose: 400.0 mg/kg/injection, schedule: Q01DX009 (ip), vehicle: saline with Tween-80)?
A: 4 of 6 and 3 of 3

Q: With O=c1[nH]c2ccccc2c2ccc([N+](=O)[O-])cc12 as the compound, how does the survivor count (T/C endpoint: mean survival time, dose: 50.0 mg/kg/injection, schedule: Q01DX001 (ip), vehicle: carboxymethylcellulose (CMC)) read?
A: 4 of 4
